# Measurements: patent US8222187B2, “Method for improving the phytoremediation of polluted sites by providing plants with exogenous carbohydrates” (Universite de Rennes 1, priority 2003, dated 2012)
# Tested on: Arabidopsis thaliana
# Test: Atrazine concentration in plants cultivated on agar medium (HPLC-UV)
# Assay type: in vivo
compound,measurement,setting,value
"CCNc1nc(Cl)nc(NC(C)C)n1 [atrazine, 2-chloro-4-ethylamino-6-isopropylamine-1,3,5-triazine]",amount of atrazine accumulated from the surrounding agar medium,"8 g of fresh mass of Arabidopsis plants, with sucrose",95 micrograms
same,atrazine content of the plants,"plants cultivated in the presence of sucrose, atrazine at 0.5 picomoles per milligram of medium",3.7 (±0.3) nanomoles of atrazine per gram of fresh weight
